The list does not hold the whole screen: its compounds were picked by chemical class. Other doses and runs of a compound may be missing. T/C gives the treated animals as a percentage of the vehicle group. Some doses have a count of surviving animals in place of a T/C: the source holds a T/C of zero for them, seemingly a mark for toxic or unscored doses. Some doses without a T/C left all or most animals alive at the check, yet need not have been tolerated: survival well below the control is almost never listed, so the zero probably covers shortened survival too. Counts of survivors are from the toxicity check (mostly the fifth day) where no day follows; animals may have died later. Schedule codes are those of the source, taken here to give the interval after Q, in days (D) or hours (H), and the number of doses after X. Some entries were tested several times; their values stand side by side, smallest first. Where survival is the endpoint, this PubChem deposit counts one and a half times the control or more as active, and values a quarter to a half above the control carry no call in these data; other NCI protocols may use other cut-offs. Some T/C values are followed by the survivors on the day toxicity was checked, most often the fifth; where neither a count nor a note follows, no animal had died by that day.
Test system: CAF1 mice, leiomyosarcoma No.2 ip, survival T/C%
Assay: NCI In Vivo Anticancer Drug Screen. Data for tumor model Leiomyosarcoma (No. 2) (intraperitoneal) in CAF1 mice
Conditions: T/C endpoint: mean survival time, schedule: Q01DX010 (ip), vehicle: saline, higher T/C = longer survival
Experimental: The antitumor activity of compounds was measured in mice bearing transplantable tumors. Survival or tumor size were measured and the results are expressed as the measurement made in the treated group (T) divided by the measurement made in the vehicle treated control group (C). The tumor model used in this assay is Leiomyosarcoma (No. 2) (intraperitoneal) in CAF1 mice

SMILES: CN(N=O)C(=N)N[N+](=O)[O-]
- T/C (dose: 8.0 mg/kg/injection): 125 and 126 % of control
- T/C (dose: 16.0 mg/kg/injection): 133 and 153 % of control
- survivor count (dose: 32.0 mg/kg/injection): 6 of 6
- survivor count (dose: 64.0 mg/kg/injection): 4 of 6 and 6 of 6

SMILES: Cc1[nH]c(=O)[nH]c(=O)c1N(CCCl)CCCl
- T/C (dose: 0.25 mg/kg/injection): 116 % of control
- T/C (dose: 0.5 mg/kg/injection): 144 % of control
- T/C (dose: 1.0 mg/kg/injection): 208 % of control
- T/C (dose: 2.0 mg/kg/injection): 180 % of control

SMILES: NC1CCCCC1.O=P(O)(N(CCCl)CCCl)N1CC1
- T/C (dose: 1.25 mg/kg/injection): 162 % of control
- T/C (dose: 2.5 mg/kg/injection): 152 and 154 % of control
- T/C (dose: 5.0 mg/kg/injection): 175 [5 of 6 alive] and 260 % of control
- T/C (dose: 10.0 mg/kg/injection): 216 [5 of 6 alive] and 231 % of control
- T/C (dose: 20.0 mg/kg/injection): 300 % of control

SMILES: CC[C@@H](C)[C@@H]1NC(=O)/C(=C(\C)O)C1=O.c1ccc(CNCCNCc2ccccc2)cc1
- T/C (dose: 10.0 mg/kg/injection): 100 % of control
- T/C (dose: 14.0 mg/kg/injection): 104 % of control
- T/C (dose: 20.0 mg/kg/injection): 104 % of control
- T/C (dose: 30.0 mg/kg/injection): 100 % of control

Source: PubChem BioAssay AID238 (DTP/NCI, 2004)
